{"source": "paper doi:10.1101/687400", "key": {"[1]": {"biological_target": "FLAG-tagged EBOV VP24 (Zaire ebolavirus (EBOV)) (UniProt Q05322)", "assay": "co-IP"}, "[2]": {"biological_target": "FLAG-tagged MARV VP24 (Marburg virus (MARV)) (UniProt P35256)", "assay": "co-IP"}}, "note": "These are yes or no findings as the source states them, for the method shown. In cells and extracts the contact can be indirect. For some assays here: A result given as binding can be weak or reduced; the word gives no strength.", "data": [{"substance": "HA-tagged Keap1 derived from the bat Myotis lucifugus (from UniProt G1PRL8)", "values": [{"measurement": "binding", "setting": "[1]", "value": "no binding"}, {"measurement": "binding", "setting": "[2]", "value": "binds"}]}]}
